# At least one compound was matched to its structure with a doubt left.
# Tested on: human dermal fibroblasts; HDFs
# Test: Real-time PCR of AdipoQ, FABP4, PPAR-γ in WA medium, Example 47
# Type: cell-based
# Details: ALK5 i II 16 μM or Rosiglitazone 1 μM, day 12, FIG. 51
smiles,measurement,value
CN(CCOc1ccc(CC2SC(=O)NC2=O)cc1)c1ccccn1 (stereo not shown) [Rosiglitazone],"PPAR-γ mRNA expression, single addition",moderately induced to express
